According to publication PMC5906681, “BRI1 and BAK1 interact with G proteins and regulate sugar-responsive growth and development in Arabidopsis” (Nature Communications, 2018):
Results are given in words; binding and its absence hold for the method and conditions named. Where a sequence is shown, tags or fusion partners need not be part of it.

Target: T1, GST-fused BRI1 kinase domain (Arabidopsis, UniProt O22476 814-1196)
T1 construct: BRASSINOSTEROID … 1 (BRI1), Arabidopsis, kinase domain, residues 814-1196; also called GST-BRI1-KD; BRI1-KD; source: E. coli (pGEX-4T-1); not shown: GST, N-terminal, kept
T1 sequence (looked up): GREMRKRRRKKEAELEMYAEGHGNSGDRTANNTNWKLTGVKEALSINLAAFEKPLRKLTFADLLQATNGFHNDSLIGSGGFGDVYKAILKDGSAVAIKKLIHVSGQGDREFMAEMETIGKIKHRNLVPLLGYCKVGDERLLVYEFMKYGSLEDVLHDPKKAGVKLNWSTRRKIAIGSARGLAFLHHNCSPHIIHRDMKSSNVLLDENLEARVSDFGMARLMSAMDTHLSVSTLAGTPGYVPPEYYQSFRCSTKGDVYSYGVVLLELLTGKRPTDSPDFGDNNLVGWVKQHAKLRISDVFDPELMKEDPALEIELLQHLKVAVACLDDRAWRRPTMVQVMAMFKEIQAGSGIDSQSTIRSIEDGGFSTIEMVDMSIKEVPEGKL
Test: condition: about 30 μg MBP fusion with about 15 μg GST fusion in 900 μL; pull-down; about 15 μg GST fusion with about 30 μg MBP fusion in 900 μL TGH buffer (10% glycerol, 1% Triton X-100, 1.5 mM MgCl2, 150 mM NaCl, 1 mM EGTA, 50 mM HEPES, pH 7.5); 30 μL GST beads, about 1 h; immunoblot with anti-MBP and anti-GST; both purified

binding: no binding
B1: MBP-GPA1 (protein, UniProt P18064 1-383)
chain: MGLLCSRSRHHTEDTDENTQAAEIERRIEQEAKAEKHIRKLLLLGAGESGKSTIFKQIKLLFQTGFDEGELKSYVPVIHANVYQTIKLLHDGTKEFAQNETDSAKYMLSSESIAIGEKLSEIGGRLDYPRLTKDIAEGIETLWKDPAIQETCARGNELQVPDCTKYLMENLKRLSDINYIPTKEDVLYARVRTTGVVEIQFSPVGENKKSGEVYRLFDVGGQRNERRKWIHLFEGVTAVIFCAAISEYDQTLFEDEQKNRMMETKELFDWVLKQPCFEKTSFMLFLNKFDIFEKKVLDVPLNVCEWFRDYQPVSSGKQEIEHAYEFVKKKFEELYYQNTAPDRVDRVFKIYRTTALDQKLVKKTFKLVDETLRRRNLLEAGLL
